This passage reports binding results from patent US20250154253A1 (ROCKEFELLER UNIVERSITY, published 2025).

The target of the experiment is T1, FcγRIV.
T1 construct: also called mouse FcγRIV; mFcγRIV
T1 chain: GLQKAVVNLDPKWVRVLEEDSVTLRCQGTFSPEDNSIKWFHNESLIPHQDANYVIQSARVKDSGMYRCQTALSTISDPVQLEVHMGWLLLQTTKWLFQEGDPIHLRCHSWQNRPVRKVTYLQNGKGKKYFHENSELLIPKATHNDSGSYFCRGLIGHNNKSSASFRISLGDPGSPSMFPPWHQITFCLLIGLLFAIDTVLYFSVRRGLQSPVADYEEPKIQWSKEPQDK
Nature of the experiment: no assay stated; drawn summary table of graded binding (- to ++++), for which the text cites Nimmerjahn et al. 2005.

Results are given in words; binding and its absence hold for the method and conditions named. Some results given as binding are weak or reduced against the parent protein; the word gives no strength.

B1: IgG2a (antibody)
heavy chain constant region: TTAPSVYPLAPVCGGTTGSSVTLGCLVKGYFPEPVTLTWNSGSLSSGVHTFPALLQSGLYTLSSSVTVTSNTWPSQTITCNVAHPASSTKVDKKIEPRVPITQNPCPPLKECPPCAAPDLLGGPSVFIFPPKIKDVLMISLSPMVTCVVVDVSEDDPDVQISWFVNNVEVHTAQTQTHREDYNSTLRVVSALPIQHQDWMSGKEFKCKVNNRALPSPIEKTISKPRGPVRAPQVYVLPPPAEEMTKKEFSLTCMITGFLPAEIAVDWTSNGRTEQNYKNTATVLDSDGSYFMYSKLRVQKSTWERGSLFACSVVHEGLHNHLTTKTISRSLGK
notes: The variable region is not specified there; also called mIgG2a; mouse IgG2a subclass (Fc format)
As for B1, the binding result is “binds”.
